# Publication PMC7862700
# The list shows a part of the results, in another mix than the full data. For some of these results: At the low end of the ranking the order means little. The list shows a part of the results. For some of these results: The exact form of the protein is not confirmed.
# How the values were obtained:
# Test in all cases: DAPPL (digital affinity profiling via proximity ligation, sequencing)
# Settings in all cases: 10 mM Tris-HCl pH 7.5, 50 mM NaCl, 1 mM DTT, 4% glycerol, room temperature, 30 min; GST-TFs on glutathione beads, 16-mer random dsDNA library, 0.1% …; high values mean tight binding; double strand, one strand shown; scale: fold enrichment (6-mer frequency, TF over GST control)
# ETS1 = molecular target: T1, ETS1 (UniProt P14921)
# T1 sequence: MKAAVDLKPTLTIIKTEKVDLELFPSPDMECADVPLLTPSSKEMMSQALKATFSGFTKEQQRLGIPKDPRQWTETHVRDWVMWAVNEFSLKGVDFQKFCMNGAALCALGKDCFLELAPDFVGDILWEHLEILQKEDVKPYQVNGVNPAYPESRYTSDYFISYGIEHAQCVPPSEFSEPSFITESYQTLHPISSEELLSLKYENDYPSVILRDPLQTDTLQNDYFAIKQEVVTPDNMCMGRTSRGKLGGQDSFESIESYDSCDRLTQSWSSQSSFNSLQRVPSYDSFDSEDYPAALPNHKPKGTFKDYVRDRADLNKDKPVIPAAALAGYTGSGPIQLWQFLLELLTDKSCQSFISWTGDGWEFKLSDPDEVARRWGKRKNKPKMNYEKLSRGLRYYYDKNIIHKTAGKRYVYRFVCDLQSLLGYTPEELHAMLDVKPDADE
# SPDEF = molecular target: T2, SPDEF (UniProt O95238)
# T2 sequence: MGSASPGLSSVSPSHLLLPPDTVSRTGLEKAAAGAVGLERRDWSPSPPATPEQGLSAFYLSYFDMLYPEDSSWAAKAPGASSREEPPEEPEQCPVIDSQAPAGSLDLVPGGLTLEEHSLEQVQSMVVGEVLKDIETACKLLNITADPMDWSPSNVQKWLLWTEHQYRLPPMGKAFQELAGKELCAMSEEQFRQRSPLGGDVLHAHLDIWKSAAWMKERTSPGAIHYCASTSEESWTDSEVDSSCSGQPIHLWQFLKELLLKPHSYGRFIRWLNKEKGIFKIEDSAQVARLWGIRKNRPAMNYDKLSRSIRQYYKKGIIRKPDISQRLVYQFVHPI
# GABPA = molecular target: T3, GABPA (UniProt Q06546)
# T3 sequence: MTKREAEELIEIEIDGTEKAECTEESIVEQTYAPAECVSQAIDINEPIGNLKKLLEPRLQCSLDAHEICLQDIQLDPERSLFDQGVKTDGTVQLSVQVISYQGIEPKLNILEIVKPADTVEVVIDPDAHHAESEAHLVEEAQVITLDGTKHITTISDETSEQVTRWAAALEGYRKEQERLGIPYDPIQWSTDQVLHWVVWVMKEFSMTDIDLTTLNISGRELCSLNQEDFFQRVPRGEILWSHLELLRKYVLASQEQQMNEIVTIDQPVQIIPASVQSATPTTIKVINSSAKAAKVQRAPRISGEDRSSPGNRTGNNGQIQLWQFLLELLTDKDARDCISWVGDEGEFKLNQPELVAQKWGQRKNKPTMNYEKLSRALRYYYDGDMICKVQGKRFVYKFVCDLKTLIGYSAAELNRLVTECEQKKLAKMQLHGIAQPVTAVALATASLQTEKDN
Sequence,binding signal (ETS1),binding signal (SPDEF),binding signal (GABPA)
GGCCAC,0.971,0.918,–
GGGCAG,0.537,0.549,0.548
TTGTGA,0.812,0.808,0.86
GGGAGA,0.311,0.303,0.342
GTGCAA,0.813,0.943,–
AGGTCG,0.522,0.514,0.528
CCGCGA,0.747,0.793,0.761
GGTAGA,0.601,0.669,0.614
CGGGAA,0.713,0.751,0.677
GTCATC,0.867,0.898,0.894
CATGTG,0.844,0.797,0.879
CGCCGT,0.932,0.948,–
CAAGGC,0.874,0.841,0.859
CGGGCA,0.698,0.727,0.687
GTCATG,0.854,0.817,0.891
GGGCTG,0.929,0.906,–
CCGGGC,0.762,1.05,0.915
GACTCA,0.883,0.865,–

# Given as tab-separated lines: part of the list above.
Sequence	binding signal (ETS1)	binding signal (SPDEF)	binding signal (GABPA)
CGGGCA	0.698	0.727	0.687
GGGCTG	0.929	0.906	–
